# The list shows a part of the results. These are raw signals, not scaled to a control.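 Primary screen: polymyxin B was added at a level permeabilizing Salmonella outer membranes while sparing inner membranes. DMSO wells, both with and without polymyxin B, established maximum growth. Plate-to-plate variation meant each plate was ranked on its own, and the lowest-OD600 compounds were selected as hits.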
# System: Salmonella enterica serovar Typhimurium SL1344
# Test: bacterial growth OD600 after 18 h with compound and polymyxin B; higher = more bacterial growth (less inhibition)
# Settings: 50 µM, Mueller-Hinton broth
smiles,measurement,setting,value
COc1ccc(CC2=NOC(CNC(=O)c3csc(C(C)C)n3)C2)cc1 (stereo not given),bacterial growth OD600,polymyxin B 0.75 µg/mL,0.747
COc1ccc(C2c3[nH]c4ccccc4c3CCN2C(=O)Cc2nonc2C)c(F)c1 (stereo not given),bacterial growth OD600,polymyxin B 0.75 µg/mL,0.582
CCn1c(-c2ccccc2F)nc2cc(NC(C)=O)cc(C(=O)NCC(C)Oc3cccnc3)c21 (stereo not given),bacterial growth OD600,polymyxin B 0.75 µg/mL,0.921
O=C(c1coc(COc2cccc(F)c2F)n1)N1CCN(CC2CC2)CC1,bacterial growth OD600,polymyxin B 1 µg/mL,0.863
COc1cc2c(cc1OC)CN(C1CCCN(Cc3ccc(C#CCCO)cc3)C1)CC2 (stereo not given),bacterial growth OD600,polymyxin B 1 µg/mL,0.96
C=CCNC(=O)CCC1(Cc2ccc(OC)cc2F)CCC(=O)N1 (stereo not given),bacterial growth OD600,polymyxin B 0.75 µg/mL,0.886
COC(=O)c1ccc(-c2noc(CN3CCC(C(O)c4cccs4)CC3)n2)cc1 (stereo not given),bacterial growth OD600,polymyxin B 1 µg/mL,0.736
CC#CC(=O)N1CCC(n2nccc2NC(=O)C(C)(C)C)CC1,bacterial growth OD600,polymyxin B 0.75 µg/mL,0.838
CCN1CCN(C(=O)c2ccc(N3CCC(N(C)Cc4nc5cc(C)c(C)cc5[nH]4)CC3)cc2)CC1,bacterial growth OD600,polymyxin B 0.75 µg/mL,0.83
CCOC(=O)N1CCC(NCc2c(C(=O)N3CCCC3)nc3sccn23)CC1,bacterial growth OD600,polymyxin B 1 µg/mL,1.21
O=C(NC1CCCC1)c1ccc(N2CCC(NCCCn3ncc4ccccc43)CC2)cc1,bacterial growth OD600,polymyxin B 0.75 µg/mL,0.779
O=C(c1ccc(F)cc1Cl)N1CCCC(N2CCN(c3ccc(F)cc3)CC2)C1 (stereo not given),bacterial growth OD600,polymyxin B 1 µg/mL,1.04
CC(C)c1csc(CN2CCCC(CNC(=O)c3n[nH]c4ccccc34)C2)n1 (stereo not given),bacterial growth OD600,polymyxin B 1 µg/mL,0.871
Cc1cccc(CN2CCC(C(=O)Nc3cccc(-c4nnc(C)s4)c3)CC2)n1,bacterial growth OD600,polymyxin B 0.75 µg/mL,0.821
O=C(C1CC1)N1CCC(Oc2cccc(C(=O)N3CCCCO3)c2)CC1,bacterial growth OD600,polymyxin B 1 µg/mL,1.25
CCCc1cc(C(=O)NCc2nc(-c3ccc(NC(=O)c4ccc(COC)o4)cc3)oc2C)n(C)n1,bacterial growth OD600,polymyxin B 0.75 µg/mL,0.82
O=C(CC1(c2cccc(C(F)(F)F)c2)CC(=O)N(C2CC2)C1=O)N(CC1CC1)CC1CCCO1 (stereo not given),bacterial growth OD600,polymyxin B 0.75 µg/mL,0.133
O=C(CCn1cncn1)N1CCC(C2CCN(Cc3cccc(F)c3F)CC2)C1 (stereo not given),bacterial growth OD600,polymyxin B 0.75 µg/mL,0.833
CCN(Cc1nccn1C)c1ccc(-c2nc(COC)no2)cn1,bacterial growth OD600,polymyxin B 0.75 µg/mL,0.867
C=CCO[C@H]1[C@H](NC(=O)COC)c2ccccc2C12CCN(Cc1ccc(F)c(OC)c1)CC2,bacterial growth OD600,polymyxin B 0.75 µg/mL,1.03

# Some of these compounds in order of molar mass, rising.
smiles,measurement,setting,value
O=C(c1coc(COc2cccc(F)c2F)n1)N1CCN(CC2CC2)CC1,bacterial growth OD600,polymyxin B 1 µg/mL,0.863
O=C(CCn1cncn1)N1CCC(C2CCN(Cc3cccc(F)c3F)CC2)C1 (stereo not given),bacterial growth OD600,polymyxin B 0.75 µg/mL,0.833
O=C(c1ccc(F)cc1Cl)N1CCCC(N2CCN(c3ccc(F)cc3)CC2)C1 (stereo not given),bacterial growth OD600,polymyxin B 1 µg/mL,1.04

# Reference: the supplement of paper PMC12889115
